No constants are given. Whether binding was seen depends on the method and setting. In cells and extracts the contact can be indirect. Some results given as binding are weak or reduced against the parent protein; the word gives no strength. Where a sequence is shown, tags or fusion partners need not be part of it.

The chains behind the UniProt entries cited, without tags or fusion partners.
UniProt P07355: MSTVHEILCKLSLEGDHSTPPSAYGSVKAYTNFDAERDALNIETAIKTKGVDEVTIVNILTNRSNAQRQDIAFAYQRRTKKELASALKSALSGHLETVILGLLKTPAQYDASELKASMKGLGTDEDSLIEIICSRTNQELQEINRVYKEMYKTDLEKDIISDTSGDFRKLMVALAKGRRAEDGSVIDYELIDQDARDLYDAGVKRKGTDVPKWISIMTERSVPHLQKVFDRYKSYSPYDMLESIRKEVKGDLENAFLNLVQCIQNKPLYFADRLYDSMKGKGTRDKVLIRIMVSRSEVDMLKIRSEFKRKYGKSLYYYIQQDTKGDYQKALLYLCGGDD

Our source for the binding values is article PMC11002074, “Lysyl oxidase-like 4 promotes the invasiveness of triple-negative breast cancer cells by orchestrating the invasive machinery formed by annexin A2 and S100A11 on the cell surface” (Frontiers in Oncology, 2024).

In the assay the target is T1, HA-tagged S100A11 (full-length) (human) (UniProt P31949).
T1 sequence: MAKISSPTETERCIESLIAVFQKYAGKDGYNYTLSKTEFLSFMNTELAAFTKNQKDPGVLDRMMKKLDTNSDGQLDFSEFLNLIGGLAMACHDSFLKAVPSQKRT
Nature of the assay: co-IP; HEK293T co-transfected with HA-tagged S100A11 and Myc-tagged ANXA2; lysate precipitated with anti-HA antibody agarose beads; WB with HA or Myc antibody.

For the substance “Myc-tagged annexin A2 (from UniProt P07355 1-339)”, the binding entry is listed as “binds”.
